Reference: PMC12120064
No constants are given. Whether binding was seen depends on the method and setting. Binding seen in cells or lysates may run through a third protein. Some binding calls cover weakened binding; strength is not graded here.

Sequences of proteins named here, by UniProt entry; tags and fusion partners are left off. Residues count along the entry.
UniProt P13688, residues 35-526: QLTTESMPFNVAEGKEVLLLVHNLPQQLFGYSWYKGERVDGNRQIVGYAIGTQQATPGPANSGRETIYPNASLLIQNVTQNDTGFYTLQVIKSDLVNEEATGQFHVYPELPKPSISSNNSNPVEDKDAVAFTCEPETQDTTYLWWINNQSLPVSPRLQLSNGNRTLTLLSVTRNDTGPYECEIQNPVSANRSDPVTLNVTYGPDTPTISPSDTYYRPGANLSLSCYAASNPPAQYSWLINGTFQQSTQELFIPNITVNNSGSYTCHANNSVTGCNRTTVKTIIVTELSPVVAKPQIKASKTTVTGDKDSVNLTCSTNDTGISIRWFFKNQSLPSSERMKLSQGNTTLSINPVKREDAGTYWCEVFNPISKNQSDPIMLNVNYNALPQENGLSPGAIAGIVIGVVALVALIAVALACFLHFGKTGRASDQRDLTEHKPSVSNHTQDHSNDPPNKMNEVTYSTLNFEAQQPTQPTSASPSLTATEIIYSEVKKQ
UniProt P40259, residues 29-229: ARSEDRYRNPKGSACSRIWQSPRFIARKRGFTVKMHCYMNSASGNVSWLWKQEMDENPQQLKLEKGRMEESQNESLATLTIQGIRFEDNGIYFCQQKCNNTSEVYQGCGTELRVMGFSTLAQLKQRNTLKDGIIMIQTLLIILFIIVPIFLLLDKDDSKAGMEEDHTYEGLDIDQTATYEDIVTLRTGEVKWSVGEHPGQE
UniProt P21333: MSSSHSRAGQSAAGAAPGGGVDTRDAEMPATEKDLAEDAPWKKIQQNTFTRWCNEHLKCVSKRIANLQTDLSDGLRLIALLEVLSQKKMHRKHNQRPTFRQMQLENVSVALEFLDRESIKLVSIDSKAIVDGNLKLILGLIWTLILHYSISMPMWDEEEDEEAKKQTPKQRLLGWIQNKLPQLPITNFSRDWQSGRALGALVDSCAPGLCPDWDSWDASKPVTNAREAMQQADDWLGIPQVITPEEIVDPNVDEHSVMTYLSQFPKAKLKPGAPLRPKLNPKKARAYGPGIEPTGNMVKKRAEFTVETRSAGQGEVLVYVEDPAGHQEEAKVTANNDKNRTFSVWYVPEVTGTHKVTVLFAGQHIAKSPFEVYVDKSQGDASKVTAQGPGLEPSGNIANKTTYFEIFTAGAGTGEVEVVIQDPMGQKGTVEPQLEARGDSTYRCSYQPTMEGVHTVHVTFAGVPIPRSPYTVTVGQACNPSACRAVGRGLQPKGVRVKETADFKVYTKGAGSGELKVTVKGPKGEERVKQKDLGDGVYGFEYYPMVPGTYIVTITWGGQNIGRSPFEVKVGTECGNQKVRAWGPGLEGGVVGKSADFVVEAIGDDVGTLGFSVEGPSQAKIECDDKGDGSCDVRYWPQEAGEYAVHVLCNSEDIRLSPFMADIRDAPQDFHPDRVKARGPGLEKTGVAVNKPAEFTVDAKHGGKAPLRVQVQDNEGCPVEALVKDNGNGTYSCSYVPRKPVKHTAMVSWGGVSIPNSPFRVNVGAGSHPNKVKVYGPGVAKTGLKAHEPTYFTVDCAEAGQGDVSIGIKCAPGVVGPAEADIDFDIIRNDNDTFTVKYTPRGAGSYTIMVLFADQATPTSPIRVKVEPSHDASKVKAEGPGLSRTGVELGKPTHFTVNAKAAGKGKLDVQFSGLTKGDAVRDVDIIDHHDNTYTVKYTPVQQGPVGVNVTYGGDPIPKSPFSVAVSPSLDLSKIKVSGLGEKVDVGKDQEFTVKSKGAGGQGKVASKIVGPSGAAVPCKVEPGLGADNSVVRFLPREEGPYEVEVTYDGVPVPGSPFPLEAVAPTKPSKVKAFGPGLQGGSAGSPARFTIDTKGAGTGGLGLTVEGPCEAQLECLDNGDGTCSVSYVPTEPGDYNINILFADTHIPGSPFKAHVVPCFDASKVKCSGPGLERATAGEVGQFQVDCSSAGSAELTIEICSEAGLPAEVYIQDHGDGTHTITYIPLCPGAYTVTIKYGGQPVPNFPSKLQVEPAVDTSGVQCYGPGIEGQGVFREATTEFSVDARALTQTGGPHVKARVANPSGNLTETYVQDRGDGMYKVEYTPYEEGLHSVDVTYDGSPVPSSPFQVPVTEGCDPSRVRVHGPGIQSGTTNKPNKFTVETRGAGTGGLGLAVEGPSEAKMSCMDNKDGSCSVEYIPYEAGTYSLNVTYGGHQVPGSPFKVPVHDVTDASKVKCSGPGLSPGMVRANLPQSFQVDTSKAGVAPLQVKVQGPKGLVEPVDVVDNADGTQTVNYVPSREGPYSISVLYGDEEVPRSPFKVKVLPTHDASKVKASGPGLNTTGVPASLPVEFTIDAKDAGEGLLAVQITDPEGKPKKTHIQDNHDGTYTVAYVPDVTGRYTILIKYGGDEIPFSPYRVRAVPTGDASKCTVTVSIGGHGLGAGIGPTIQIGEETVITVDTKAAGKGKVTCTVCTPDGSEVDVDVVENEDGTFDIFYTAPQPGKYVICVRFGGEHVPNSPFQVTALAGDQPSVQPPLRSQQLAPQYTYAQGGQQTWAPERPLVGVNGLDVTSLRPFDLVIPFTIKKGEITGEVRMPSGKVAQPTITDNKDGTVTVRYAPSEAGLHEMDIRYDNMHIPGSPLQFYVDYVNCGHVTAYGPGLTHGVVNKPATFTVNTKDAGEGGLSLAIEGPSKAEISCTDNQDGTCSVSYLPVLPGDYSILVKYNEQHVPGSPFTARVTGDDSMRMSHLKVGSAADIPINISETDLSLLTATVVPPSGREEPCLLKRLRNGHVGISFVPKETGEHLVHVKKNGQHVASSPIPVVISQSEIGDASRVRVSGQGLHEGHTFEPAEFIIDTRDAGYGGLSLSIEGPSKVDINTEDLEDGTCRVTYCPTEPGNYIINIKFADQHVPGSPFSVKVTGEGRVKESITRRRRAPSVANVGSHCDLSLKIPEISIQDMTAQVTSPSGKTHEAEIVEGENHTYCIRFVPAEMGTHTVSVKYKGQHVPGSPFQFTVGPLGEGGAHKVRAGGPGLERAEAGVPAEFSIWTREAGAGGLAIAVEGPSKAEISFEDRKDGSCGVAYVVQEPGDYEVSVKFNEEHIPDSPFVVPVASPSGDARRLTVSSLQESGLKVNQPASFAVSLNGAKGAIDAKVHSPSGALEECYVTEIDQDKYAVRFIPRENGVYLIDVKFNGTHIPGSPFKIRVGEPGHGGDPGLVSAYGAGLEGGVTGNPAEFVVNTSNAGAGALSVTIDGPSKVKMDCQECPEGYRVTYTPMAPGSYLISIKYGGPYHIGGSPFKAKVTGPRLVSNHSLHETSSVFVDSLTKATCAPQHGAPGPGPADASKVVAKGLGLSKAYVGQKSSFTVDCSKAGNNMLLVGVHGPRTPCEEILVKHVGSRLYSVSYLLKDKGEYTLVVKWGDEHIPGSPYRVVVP

What was measured:
[1] = target: full-length CEACAM1-4L (wild type, reintroduced) (UniProt P13688); test: proximity ligation; CEACAM1-knockout JEKO-1 cells reconstituted with 4L, Y493F/Y520F or ΔN CEACAM1, fixed and permeabilised after BCR stimulation with anti-IgM; Duolink red
[2] = target: full-length CEACAM1-4L (wild type, reintroduced) (UniProt P13688); test: co-IP; CEACAM1-knockout JEKO-1 cells reconstituted with 4L, Y493F/Y520F or ΔN CEACAM1, stimulated with 2 μg/ml anti-IgM for the indicated times; CEACAM1 immunoprecipitated, immunoblot; IP buffer 50 mM Tris-HCl, 150 mM NaCl, 1% Triton X-100, 2 mM EDTA

Substance | binding [1] | binding [2]
CD79B (from UniProt P40259 29-229) | binds | binds
filamin A (FLNA) (from UniProt P21333 1-2647) | – | binds
